Consider one substance from PMC9360036.

By UniProt entry, the sequences of proteins in these tests, tags left out. Where a name states a change or a piece, a line headed by the entry shows the natural chain unless it says otherwise. Chains listed by the source or under a name are the forms on record and can include a tag or linker.
MAP4K4-BioID2-3xFLAG (O95819, form named): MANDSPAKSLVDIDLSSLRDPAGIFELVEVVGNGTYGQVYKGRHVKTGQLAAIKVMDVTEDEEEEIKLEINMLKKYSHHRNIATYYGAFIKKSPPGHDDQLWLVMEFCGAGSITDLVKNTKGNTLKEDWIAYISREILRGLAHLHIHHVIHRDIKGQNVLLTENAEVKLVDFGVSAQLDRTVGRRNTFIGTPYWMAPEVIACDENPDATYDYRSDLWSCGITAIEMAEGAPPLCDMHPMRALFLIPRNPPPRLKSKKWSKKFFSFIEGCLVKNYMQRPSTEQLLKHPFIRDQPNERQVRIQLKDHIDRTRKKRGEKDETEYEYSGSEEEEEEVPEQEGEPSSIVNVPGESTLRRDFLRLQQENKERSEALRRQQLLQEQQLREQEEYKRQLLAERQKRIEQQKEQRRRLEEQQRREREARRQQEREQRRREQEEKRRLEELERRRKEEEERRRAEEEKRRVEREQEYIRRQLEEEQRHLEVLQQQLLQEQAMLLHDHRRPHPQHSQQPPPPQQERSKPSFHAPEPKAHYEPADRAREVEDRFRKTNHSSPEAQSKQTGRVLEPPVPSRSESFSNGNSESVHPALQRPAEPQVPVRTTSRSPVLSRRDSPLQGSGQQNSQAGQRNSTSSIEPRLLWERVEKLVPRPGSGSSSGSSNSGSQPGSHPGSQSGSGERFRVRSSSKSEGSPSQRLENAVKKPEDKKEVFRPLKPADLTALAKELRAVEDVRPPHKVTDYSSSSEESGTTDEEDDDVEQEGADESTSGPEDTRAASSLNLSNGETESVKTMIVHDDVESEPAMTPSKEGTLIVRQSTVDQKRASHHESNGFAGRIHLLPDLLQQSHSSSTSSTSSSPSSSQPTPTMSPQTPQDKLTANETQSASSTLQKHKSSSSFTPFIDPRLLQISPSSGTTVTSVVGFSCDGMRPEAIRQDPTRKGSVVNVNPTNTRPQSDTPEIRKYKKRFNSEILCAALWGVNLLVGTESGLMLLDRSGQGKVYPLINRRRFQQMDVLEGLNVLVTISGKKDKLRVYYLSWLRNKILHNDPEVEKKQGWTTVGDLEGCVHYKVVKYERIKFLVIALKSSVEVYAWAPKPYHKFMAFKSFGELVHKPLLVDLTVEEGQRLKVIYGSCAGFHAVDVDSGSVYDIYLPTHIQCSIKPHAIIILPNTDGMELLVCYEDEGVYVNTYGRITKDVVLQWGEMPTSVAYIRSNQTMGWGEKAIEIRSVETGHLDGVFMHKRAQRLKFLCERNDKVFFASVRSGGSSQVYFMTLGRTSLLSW
UniProt P50552: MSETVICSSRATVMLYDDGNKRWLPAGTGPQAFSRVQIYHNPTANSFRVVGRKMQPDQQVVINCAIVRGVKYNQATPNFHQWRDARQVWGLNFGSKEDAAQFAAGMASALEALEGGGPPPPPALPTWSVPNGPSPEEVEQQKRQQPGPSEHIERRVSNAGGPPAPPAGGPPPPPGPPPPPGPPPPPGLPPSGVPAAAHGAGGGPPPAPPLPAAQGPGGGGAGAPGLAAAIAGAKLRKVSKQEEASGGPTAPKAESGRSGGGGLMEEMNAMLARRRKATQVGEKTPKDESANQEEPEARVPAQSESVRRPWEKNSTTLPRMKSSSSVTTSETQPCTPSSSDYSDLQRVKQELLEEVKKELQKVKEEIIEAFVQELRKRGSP

These are yes or no findings as the source states them, for the method shown. In cells and extracts the contact can be indirect. Here binding means that the protein was enriched with, or labelled near, the bait; the list need not be complete. A no says only that the protein was not detected with the bait.

The target in this experiment is MAP4K4-BioID2-3xFLAG (human) (UniProt O95819). As to the kind of experiment: proximity labelling; BioID with N-BioID2-M4K4 or C-BioID2-M4K4, streptavidin pull-down and mass spectrometry; told in the discussion only; cells not told (HEK-293T or DAOY).

VASP (from UniProt P50552 1-380): the binding result is given as “no binding”.
